This passage reports binding results from article PMC10698194.

By UniProt entry, the sequences of proteins in these tests, tags left out.
UniProt P33534: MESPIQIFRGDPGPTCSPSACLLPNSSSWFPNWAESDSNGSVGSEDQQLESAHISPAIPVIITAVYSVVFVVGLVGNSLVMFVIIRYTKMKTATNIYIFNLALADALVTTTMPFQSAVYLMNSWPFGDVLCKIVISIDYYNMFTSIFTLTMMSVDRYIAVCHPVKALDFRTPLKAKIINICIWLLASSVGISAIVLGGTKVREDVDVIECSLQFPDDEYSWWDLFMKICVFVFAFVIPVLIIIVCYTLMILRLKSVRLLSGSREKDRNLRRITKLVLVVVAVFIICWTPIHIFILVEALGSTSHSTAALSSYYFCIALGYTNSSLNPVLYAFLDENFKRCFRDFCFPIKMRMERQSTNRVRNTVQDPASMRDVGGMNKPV
UniProt P49407: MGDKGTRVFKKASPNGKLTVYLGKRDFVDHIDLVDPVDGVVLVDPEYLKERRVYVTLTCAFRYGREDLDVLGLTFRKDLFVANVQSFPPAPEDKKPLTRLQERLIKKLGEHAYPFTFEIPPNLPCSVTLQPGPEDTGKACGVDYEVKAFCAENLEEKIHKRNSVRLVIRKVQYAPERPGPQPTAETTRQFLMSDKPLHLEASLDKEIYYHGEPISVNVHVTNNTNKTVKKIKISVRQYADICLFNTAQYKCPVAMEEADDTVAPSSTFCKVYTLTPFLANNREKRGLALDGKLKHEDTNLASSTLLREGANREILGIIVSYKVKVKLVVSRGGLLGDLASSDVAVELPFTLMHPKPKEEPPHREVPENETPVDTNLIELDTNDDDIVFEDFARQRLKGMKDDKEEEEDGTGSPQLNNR
UniProt P32121: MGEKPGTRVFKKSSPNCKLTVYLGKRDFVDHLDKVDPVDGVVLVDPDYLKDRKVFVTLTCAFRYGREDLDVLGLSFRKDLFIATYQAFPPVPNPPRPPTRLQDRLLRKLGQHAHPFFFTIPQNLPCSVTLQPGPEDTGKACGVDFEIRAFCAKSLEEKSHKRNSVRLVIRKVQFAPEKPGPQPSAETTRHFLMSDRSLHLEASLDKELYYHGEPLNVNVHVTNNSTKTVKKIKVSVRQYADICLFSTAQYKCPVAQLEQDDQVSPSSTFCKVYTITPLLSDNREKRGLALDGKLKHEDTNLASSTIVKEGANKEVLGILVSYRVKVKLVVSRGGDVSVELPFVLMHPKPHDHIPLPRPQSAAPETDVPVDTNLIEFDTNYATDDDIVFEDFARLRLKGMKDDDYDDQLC

Results are given in words; binding and its absence hold for the method and conditions named. Binding seen in cells or lysates may run through a third protein. Some entries that bind do so weakly or less than the wild type.

The assay deals with mouse KOR-EGFP (mouse) (UniProt P33534). Description: FRET or BRET; HEK293 cells transiently co-expressing human β-arrestin-1/2-nano luciferase and mouse KOR-EGFP (1:10); agonist (DNCP-β-NalA(1), β-NalA, dyn A 1-13, U69,593) 5 min at 37 °C; furimazine. (In BRET a luciferase serves as donor, and the signal depends on an acceptor being close.)

Regarding “human β-arrestin-1-nano luciferase (from UniProt P49407 1-418)”, the binding result is “binds”. For “human β-arrestin-2-nano luciferase (from UniProt P32121 1-409)”, the binding entry is given as “binds”.
